These are yes or no findings as the source states them, for the method shown. In cells and extracts the contact can be indirect. Binding calls can cover weak binding; strength is not graded here.

Chains of the proteins cited; added tags and fusions are not shown. Lines headed by an entry give the natural chain unless they say otherwise; changes in a name come on top.
UniProt O15260: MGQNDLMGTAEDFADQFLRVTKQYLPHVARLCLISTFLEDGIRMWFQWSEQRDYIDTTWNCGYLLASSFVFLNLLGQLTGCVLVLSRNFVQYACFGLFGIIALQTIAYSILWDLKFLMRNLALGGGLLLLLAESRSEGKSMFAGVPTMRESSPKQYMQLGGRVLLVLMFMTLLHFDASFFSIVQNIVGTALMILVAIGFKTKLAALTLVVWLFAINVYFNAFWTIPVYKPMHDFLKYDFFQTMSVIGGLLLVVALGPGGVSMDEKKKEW
UniProt Q8NBP7: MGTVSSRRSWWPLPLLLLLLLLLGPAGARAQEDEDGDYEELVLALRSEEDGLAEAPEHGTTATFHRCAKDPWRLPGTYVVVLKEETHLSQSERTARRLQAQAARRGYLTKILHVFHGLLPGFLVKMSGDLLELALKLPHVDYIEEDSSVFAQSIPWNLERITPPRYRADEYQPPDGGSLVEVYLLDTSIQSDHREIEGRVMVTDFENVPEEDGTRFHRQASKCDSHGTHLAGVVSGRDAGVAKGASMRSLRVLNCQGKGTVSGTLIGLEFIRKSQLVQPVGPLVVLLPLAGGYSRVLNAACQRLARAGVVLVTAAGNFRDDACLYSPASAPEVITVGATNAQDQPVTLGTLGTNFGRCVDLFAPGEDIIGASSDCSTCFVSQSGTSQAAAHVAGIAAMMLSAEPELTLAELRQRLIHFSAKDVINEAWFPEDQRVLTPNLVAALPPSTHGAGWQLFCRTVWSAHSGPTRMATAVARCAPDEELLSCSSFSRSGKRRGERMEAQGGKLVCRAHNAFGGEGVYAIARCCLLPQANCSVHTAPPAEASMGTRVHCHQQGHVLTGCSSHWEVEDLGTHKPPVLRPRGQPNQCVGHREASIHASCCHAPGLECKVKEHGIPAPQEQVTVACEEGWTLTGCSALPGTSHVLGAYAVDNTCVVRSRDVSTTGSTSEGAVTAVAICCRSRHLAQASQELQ

The target in this assay is SURF4 with an N-terminal FLAG epitope tag (human) (UniProt O15260). The experiment in a line: co-IP; cells cross-linked with 2 mM dithiobis(succinimidyl propionate) in PBS with 2 mM CaCl2, lysed in 50 mM Tris-HCl, 150 mM NaCl, 2 mM CaCl2, 1.0% Triton X-100, pH 7.5; immunoprecipitation with M2-FLAG affinity gel or GFP-trap magnetic beads, 4°C overnight, 5 washes; immunoblot. In general terms: In western blotting, separated proteins are transferred to a membrane and probed.

Consider PCSK9-eGFP fusion (from UniProt Q8NBP7), for which the binding result is given as “binds”.

These data come from paper PMC6156083.
